These results are taken from US20220074923A1, “METHODS OF IDENTIFYING PARKIN-MEDIATED MITOPHAGY ACTIVATING AGENTS” (THE GOVERNING COUNCIL OF THE UNIVERSITY OF TORONTO, priority 2018, published 2022).

For the assay, the system named is HEK293 GFP Parkin cells. Put plainly: High throughput small molecule screen for Parkin recruitment to mitochondria (high content imaging). Type of assay: cell-based. To be noted: 4 μM, 16 h, then CCCP 2 h, rank out of 480, low rank = activator of Parkin recruitment. Here is the method:
10 uL of 0.1 mg/mL Poly-D-Lys solution was added to 384-well plates for 5 minutes, followed by a PBS wash. Plates were dried for at least 2 hours. 50 μL of 600 000 HEK293 GFP Parkin cell/mL of DMEM was dispensed into each well. After 24 hours incubation to allow the cells to adhere, 200 nL of small molecules (or DMSO in columns 1, 2, 23 and 24) were pinned. Following a 16-hour incubation, 200 nL of 5 mM CCCP were added to all wells except columns 1 and 2, into which 200 nL of DMSO was added. Following 2-hour incubation, cells were fixed with 4% paraformaldehyde (PFA) and stained with 50 μL of 1 μg/mL DAPI solution for 15 minutes. After the final PBS wash, plates were ready for high content microscopy.
Images were acquired on IN Cell Analyzer 6000 (GE Healthcare), equipped with sCMOS camera (2048×2048), and 20x/0.45 NA Plan Fluor objective (Nikon) in open aperture mode using 1×1 binning. Image analysis was performed using Columbus Image Analysis System (PerkinElmer). Nuclei were initially detected in DAPI channel, followed by whole cell segmentation in GFP channel. […] The percentage of cells with mitochondrial GFP-Parkin was determined per well. The molecules were then rank ordered based on z-score, which is calculated using the formula: […]

On to `O=C1NC(=O)c2c1c(-c1ccccc1)cc1[nH]c3ccc(O)cc3c21` [PD 407824], for which the “rank in the kinase inhibitor library screen (rank order by z-score)” value is listed as 425/480.
